Source: PMC10213937 (Frontiers in Pharmacology, 2023)
Like-named read-outs stand apart in the source and are kept apart here.

Legend:
[1] = rat
in vivo = conditions: male, Sprague-Dawley, rat, plasma, po, rats; for AUC(0-t): AUC0–24h; for CL/F: CLz/F; for MRT inf: MRT0-∞; for Vd/F: Vz/F
[2] = Plasma concentrations of ATO, metabolites and VOR in patients (HPLC-MS/MS); type: in vivo, human; parameters: Concentration in human blood samples: unit not given here; conditions: for Concentration in human blood samples: n = 3; for Increase of ATO concentration in the VOR group: VOR + ATO vs ATO alone
From the text: The experimental procedures were approved by the Ethics Committee of Shenzhen Hospital of Southern Medical University, and conducted in accordance with the Declaration of Helsinki (No. NYSZYYEC20180017). Subjects were selected from patients seen in the Department of Critical Care Medicine of Shenzhen Hospital of Southern Medical University, who were diagnosed with fungal infections complicated by cardiovascular and cerebrovascular diseases. Written informed consent was obtained from three patients aged 20-55 years. […] All procedures followed the ethical principles of the World Medical Association (WMA) Declaration of Helsinki and were approved by the Medical Ethics Committee of Shenzhen Hospital. […] Prelude […] The injection volume is 2 μL.

[3] = rats
[4] = 2 mg/kg, VOR 6-day pretreatment + ATO 2 mg/kg oral
[5] = VOR 6-day pretreatment + ATO 2 mg/kg oral

Structure (SMILES): CC(C)c1c(C(=O)Nc2ccccc2)c(-c2ccccc2)c(-c2ccc(F)cc2)n1CC[C@@H](O)C[C@@H](O)CC(=O)O [ATO, atorvastatin]
- Stability, measured concentration (mean ± SD) ([1]; 0.05 ng/mL): 0.044 ± 0.007 ng/mL
- Stability, measured concentration (mean ± SD) ([1]; 5 ng/mL): 4.784 ± 0.357 ng/mL
- Stability, measured concentration (mean ± SD) ([1]; 80 ng/mL): 73.885 ± 9.852 ng/mL
- Stability, measured concentration (mean ± SD) ([1]; 24 h, 0.05 ng/mL): 0.047 ± 0.005 ng/mL
- Stability, measured concentration (mean ± SD) ([1]; 24 h, 5 ng/mL): 4.773 ± 0.423 ng/mL
- Stability, measured concentration (mean ± SD) ([1]; 24 h, 80 ng/mL): 77.681 ± 6.004 ng/mL
- AUC(0-t) (in vivo; 2 mg/kg, NS + ATO 2 mg/kg oral): 53.9 ng·h/mL
- AUC(0-t) (in vivo; [4]): 177 ng·h/mL
- CL/F (in vivo; 2 mg/kg, NS + ATO 2 mg/kg oral): 67.3 mL/min/kg
- CL/F (in vivo; [4]): 6.98 mL/min/kg
- Cmax (in vivo; 2 mg/kg, NS + ATO 2 mg/kg oral): 33.3 ± 4.03 ng/mL
- Cmax (in vivo; [4]): 32.5 ± 7.14 ng/mL
- MRT inf (in vivo; 2 mg/kg, NS + ATO 2 mg/kg oral): 6.73 ± 1.4 h
- MRT inf (in vivo; [4]): 6.73 ± 1.4 h
- Tmax (in vivo; 2 mg/kg, NS + ATO 2 mg/kg oral): 0.34 h
- Tmax (in vivo; [4]): 2 h
- Vd/F (in vivo; 2 mg/kg, NS + ATO 2 mg/kg oral): 10.19 ± 0.065 L/kg
- Vd/F (in vivo; [4]): 2.27 ± 11 L/kg
- MRT inf (in vivo; [5]): 4.17 ± 0.848 h
- Concentration in human blood samples ([2]; ATO 20 mg alone, 0 h after taking ATO): 2.697 ± 1.342
- Concentration in human blood samples ([2]; ATO 20 mg alone, 1 h after taking ATO): 25.710 ± 1.426
- Concentration in human blood samples ([2]; ATO 20 mg alone, 2 h after taking ATO): 17.093 ± 3.491
- Concentration in human blood samples ([2]; ATO 20 mg alone, 12 h after taking ATO): 2.663 ± 1.678
- Concentration in human blood samples ([2]; ATO 20 mg alone, 24 h after taking ATO): 1.210 + 1.326
- Concentration in human blood samples ([2]; VOR + ATO (VOR iv 6 mg/kg day 1, 4 mg/kg days 2–3), 0 h after taking ATO): 10.502 + 2.104
- Increase of ATO concentration in the VOR group ([2]; 0 h after ATO): 3.89 fold
- Increase of ATO concentration in the VOR group ([2]; 1 h after ATO): 1.60 fold
- Increase of ATO concentration in the VOR group ([2]; 2 h after ATO): 2.79 fold
- Increase of ATO concentration in the VOR group ([2]; 12 h after ATO): 10.07 fold
- Increase of ATO concentration in the VOR group ([2]; 24 h after ATO): 16.89 fold
- Concentration in human blood samples ([2]; VOR + ATO, 1 h after taking ATO): 41.227 + 4.557
- Concentration in human blood samples ([2]; VOR + ATO, 2 h after taking ATO): 47.753 + 3.937
- Concentration in human blood samples ([2]; VOR + ATO, 12 h after taking ATO): 26.818 + 3.867
- Concentration in human blood samples ([2]; VOR + ATO, 24 h after taking ATO): 20.437 + 5.778
- AUC0–24h ([3]; NS + ATO 2 mg/kg oral): 53.863 ± 5.221 ng·h/mL
- AUC0-∞ [3, 5]: 194.937 ± 47.325 ng·h/mL
- AUC0–24h [3, 5]: 176.848 ± 24.713 ng·h/mL
